Results published in PubChem BioAssay AID445 (National Center for Advancing Translational Sciences (NCATS), 2006).
This is one part of the list. Shown are side measurements of this screen, not its main read-out; they come without a call. Compounds called inactive in the main read-out are mostly missing here. Potencies come from curve fits of mixed quality, noted in brackets.

Experiment: IkB Signaling
Conditions: ABC-DLBCL IkBa-CBG/CBR dual luciferase ratio (green luciferase fused to IkBa over red control in OCI-Ly3 lymphoma cells), 4 h
Outline: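 In this assay, an IκBα–CBG68 fusion accumulates when IKK-driven degradation is blocked; native CBR normalizes for cell number. OCI-Ly3 cells were treated 4 h with compound and doxycycline, then green and red light read after Chroma-Glo addition.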

[1] = measured here: control luc red channel unless noted

COc1ccccc1-c1cc(C(=O)N2CCc3ccccc3C2)no1
AC50 [1]: 7.94 µM [falling, partial curve]

O=C(Nc1nnc(S(=O)(=O)N2CCCCCC2)s1)c1ccccc1Cl
AC50 [1]: 15.8 µM [falling, partial curve]

CCOc1ccc(NC(=O)c2cc3c(s2)-c2ccccc2OC3)cc1
AC50 [1]: 6.31 µM [falling, full curve]

Cc1cccc(NC(=O)C(Cc2ccccc2)n2cccc2)c1C (centres undefined)
AC50 [1]: 25.1 µM [falling, single point]

COC(=O)c1cc2sccc2n1Cc1nc(-c2cccc(Br)c2)oc1C
AC50 [1]: 39.8 µM [falling, partial curve]

COc1ccccc1Nc1c2c(nc3ccc(NC(=O)c4cccc(OC)c4OC)cc13)CCCC2
AC50 [1]: 31.6 µM [falling, single point]

COc1ccc(CCNC(=O)c2cnc3sc(N4CCC(C)CC4)nn3c2=O)cc1OC
AC50 [1]: 31.6 µM [rising, partial curve]

O=C(Cc1ccc(F)cc1)NCc1nc2cccnc2n1Cc1ccc(F)cc1
AC50 [1]: 39.8 µM [rising, single point]

FC(F)(F)c1cccc(N2CCN(Cc3nnc(-c4ccc5c(c4)OCO5)o3)CC2)c1
AC50 [1]: 20 µM [falling, partial curve]

CSc1cccc(NC(=O)Nc2ccccc2)c1
AC50 [1]: 10 µM [falling, partial curve]

CC(C)(C)C1CCc2c(sc(NC(=O)CCC(=O)O)c2C(=O)Nc2ccccc2C(F)(F)F)C1 (centres undefined)
AC50 [1]: 20 µM [falling, partial curve]

CCc1ccc2c(c1)-c1ccccc1S(=O)(=O)N2CC(=O)N1CCC(C)CC1
AC50 [1]: 12.6 µM [falling, partial curve]

CC1CCN(S(=O)(=O)c2ccc3c(c2)N(CC(=O)N2CCN(c4ccccc4)CC2)C(=O)CO3)CC1
AC50 [1]: 1.58 µM [falling, partial curve]

COc1ccccc1C(=O)Nc1nc2nc(C)c(Cc3ccccc3)c(=O)n2[nH]1
AC50 [1]: 10 µM [falling, partial curve]

COc1cccc(Cn2c(CNS(=O)(=O)c3ccc4c(c3)CCCC4)nc3cccnc32)c1
AC50 [1]: 1.26 µM [rising, full curve]

CCOC1=NC(C(=O)O)c2ccccc2/C(=C(/C)Cl)N1 (centres undefined)
AC50 [1]: 31.6 µM [falling, single point]

COc1ccc(O)c(-c2c(-c3ccc(Cl)cc3)n[nH]c2C)c1
AC50 [1]: 15.8 µM [falling, partial curve]

Cc1ccc(Nc2cc(C(=O)NCc3cccs3)c3ccccc3n2)c(C)c1
AC50 [1]: 3.16 µM [falling, partial curve]

Cc1ccccc1N(CC(=O)Nc1ccc(F)cc1)S(C)(=O)=O
AC50 [1]: 0.316 µM [falling, full curve]

COc1ccc(Nc2ncc3c(n2)CCN(C(=O)OC(C)(C)C)C3)cc1
AC50 [1]: 12.6 µM [falling, single point]

CCOC(=O)CC(=O)CSc1nnc2c(n1)[nH]c1ccccc12
AC50 [1]: 20 µM [falling, single point]

CCOc1ccccc1C(=O)N(Cc1cccs1)c1ccc(Cl)cc1
AC50 [1]: 25.1 µM [falling, partial curve]

O=C(Nc1ccccc1)c1cn(-c2ccccc2)nc1-c1ccccc1
AC50 [1]: 20 µM [falling, single point]

Cc1ccc(-c2nc3cc(C)ccc3o2)cc1
AC50 [1]: 3.16 µM [falling, partial curve]

COc1cccc(N2CCN(S(=O)(=O)c3ccc4nc(-c5ccccc5)[nH]c4c3)CC2)c1
AC50 [1]: 5.01 µM [falling, partial curve]

Cc1ccc(NC(=O)Cn2c(-c3cncs3)nc3ccccc32)cc1Br
AC50 [1]: 1.26 µM [falling, full curve]

COc1cc2c(C(=O)N(C)c3cc(Cl)ccc3OC)cn(CC(C)C)c(=O)c2cc1OC
AC50 [1]: 20 µM [falling, partial curve]

Cc1nn(CCCC(=O)Nc2cccc(F)c2)c(=O)c2c1sc1ccccc12
AC50 [1]: 7.94 µM [falling, partial curve]

O=C(Nc1ccc2c(c1)OCO2)c1c(F)c(F)c(F)c(F)c1F
AC50 [1]: 3.98 µM [falling, partial curve]

COC(=O)c1ccc(NC(=O)Nc2ccc(F)cc2)cc1
AC50 [1]: 39.8 µM [falling, single point]

Cc1ccc(NC(=O)Cn2c(=O)c(CNc3ccccc3)cc3cc4c(cc32)OCCO4)cc1
AC50 [1]: 7.94 µM [falling, partial curve]

CCN(CC)C(=O)C1=C(C)Nc2nc3ccccc3n2C1c1cccc(Cl)c1 (centres undefined)
AC50 [1]: 12.6 µM [falling, partial curve]

COc1cc(CNc2ccc3[nH]c(=O)[nH]c3c2)cc(Cl)c1OCc1ccccc1F
AC50 [1]: 0.1 µM [falling, full curve]

Cc1ccc(CNC(=O)c2ccc3c(c2)N(Cc2cccc(C)c2)C(=O)CS3)cc1
AC50 [1]: 6.31 µM [falling, full curve]

Cc1ccc(-c2nn(CC(=O)Nc3cccc(C(F)(F)F)c3)c(=O)c3ccccc23)cc1
AC50 [1]: 3.98 µM [falling, full curve]

Cc1cccc(C)c1NC(=O)CSCc1cnn(-c2ccccc2)c1-n1cccc1
AC50 [1]: 25.1 µM [falling, single point]

Cc1c(C(=O)N2CCN(c3ccccn3)CC2)oc2ccccc12
AC50 [1]: 31.6 µM [rising, partial curve] [measured here: IkB-luc green channel]

COc1ccccc1-c1cc(C(=O)Nc2ccccc2SC)no1
AC50 [1]: 0.000158 µM [falling, full curve, poor fit]

O=C(Nc1scc(-c2ccccc2)c1C(=O)O)c1ccco1
AC50 (measured here: IkB-luc green channel): 0.00631 µM [rising, full curve] | AC50 (measured here: control luc red channel): 7.94 µM [falling, partial curve]

CCOc1ccc(C2=CC(c3cc(Br)ccc3F)n3ncnc3N2)cc1Cl (centres undefined)
AC50 [1]: 39.8 µM [falling, single point]

CCOc1ccc(S(=O)(=O)N(C(=O)c2ccncc2)c2ccc3oc(C)c(C(=O)OC)c3c2)cc1
AC50 [1]: 5.01 µM [falling, partial curve]

Cc1nn(CC(=O)Nc2cccc(C(F)(F)F)c2)c(=O)c2nn(-c3ccccc3)c(C)c12
AC50 [1]: 12.6 µM [falling, single point]

CCOC(=O)c1c(NC(=O)Cn2nnc3ccccc32)sc2c1CCC(C)C2 (centres undefined)
AC50 [1]: 7.94 µM [falling, partial curve]

CN(C(=O)CSc1nc2ccccc2n1Cc1cccc(C(F)(F)F)c1)c1ccccc1
AC50 [1]: 25.1 µM [falling, partial curve]

O=C(COC(=O)c1cc(-c2ccccc2)nc2c(Cl)cccc12)c1ccc(F)cc1
AC50 [1]: 2.51 µM [falling, full curve, poor fit]

COc1cccc(CNC(=O)c2nn(C)c3c2CS(=O)(=O)c2ccccc2-3)c1
AC50 [1]: 39.8 µM [falling, single point]

COc1ccc(NC(=O)CSC2=Nc3ccccc3C3=NC(CCC(=O)NCCc4ccccc4)C(=O)N23)c(OC)c1 (centres undefined)
AC50 [1]: 10 µM [falling, partial curve]

COc1ccc(CNC(=O)c2cc(C)nc3c2c(C)nn3-c2cccc(Cl)c2C)cc1
AC50 [1]: 2 µM [falling, partial curve]

CC(C)CN(CCCNC(=O)c1cn(C)c2ccc(S(=O)(=O)N(C)C3CCCCC3)cc2c1=O)CC(C)C
AC50 [1]: 0.0631 µM [falling, full curve, poor fit]

COc1cccc(NC(=O)C(CCSC)NC(=O)C2CCC(C)CC2)c1 (centres undefined)
AC50 [1]: 2.51 µM [falling, full curve]

COc1ccc(CCNC(=O)CCn2c(=O)c3cccn3c3cccnc32)c(OC)c1OC
AC50 [1]: 0.00251 µM [rising, full curve]

Cc1cccc(NC(=O)N2CCC(n3c(C)nc4cccnc43)CC2)c1
AC50 [1]: 3.16 µM [rising, partial curve]

O=C(CSc1nccn1Cc1ccccc1)Nc1ccc2c(c1)OCO2
AC50 [1]: 6.31 µM [rising, single point]

CC1CCN(c2nc3c(c(=O)n(C)c(=O)n3C)n2Cc2ccccc2)CC1
AC50 [1]: 25.1 µM [falling, single point]

CCC(C)(C)NC(=O)Cn1c(=O)ccc2cc(S(=O)(=O)N3CCC(C)CC3)ccc21
AC50 [1]: 0.631 µM [rising, full curve]

CCOC(=O)N1CCC(NC(=O)c2ccc3c(c2)N(Cc2cc(C)ccc2C)C(=O)c2ccccc2S3=O)CC1 (centres undefined)
AC50 [1]: 15.8 µM [falling, partial curve]

CCOc1cc(C(=O)NCCc2csc(-c3ccc(C)cc3)n2)cc(OCC)c1OCC
AC50 [1]: 39.8 µM [falling, single point]

CN(C(=O)c1cc2c(=O)n3ccccc3nc2n1C)c1ccccc1
AC50 [1]: 20 µM [falling, single point]

CCOC(=O)c1cnc2c(-c3ccccc3)cnn2c1N
AC50 [1]: 0.398 µM [falling, full curve, poor fit]

Cc1ccc(Cl)cc1N1CCN(C(=O)C2CCN(S(=O)(=O)c3ccc4c(c3)oc(=O)n4C)CC2)CC1
AC50 [1]: 6.31 µM [falling, partial curve]

Cc1cc(C)c2c(n1)nn1c(C)c(CCC(=O)NCc3ccc(Cl)cc3)c(C)nc21
AC50 [1]: 31.6 µM [falling, single point]

c1ccc(-c2ccc(-c3nc(-c4ccccn4)no3)cc2)cc1
AC50 [1]: 10 µM [falling, partial curve]

Cc1ccc(OCc2nc(-c3ccc(C(=O)N4CCN(c5ccccc5)CC4)cc3)oc2C)cc1
AC50 [1]: 3.98 µM [falling, full curve, poor fit]
